Measured data: PubChem BioAssay AID743121 (NCATS, 2013)
Assay: 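Partners whose loss is lethal together with topoisomerase I blockade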 (primary screen). Cells: MDA-MB-231 cells, a human breast cancer line. Reagents: single siRNA against human genes, 20 nM siRNA (0.8 pmol per well). Time to read-out: 120 h (drug added 48 h after transfection, read 72 h later). Treatment: camptothecin 20 nM (about EC30) for 72 h; vehicle 0.1% DMSO in parallel plates. Detection: 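CellTiter-Glo ATP signal, scaled to control siRNA as percent viability; sensitisation given as log2 of untreated divided by camptothecin-treated viability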. Direction: log2 vehicle/camptothecin viability: higher = stronger sensitisation to camptothecin; viability with camptothecin and viability without drug: higher = more viable cells. Hit rule: 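Each gene scored by redundant siRNA activity (RSA) over its individual siRNA ratios; a gene is called active at p < 0.001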.
Shown is an unselected part of about 26,000 reagents tested. Over the whole deposit, 167 (0.63%) are marked active. 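Calls are per gene from RSA p-values that are not deposited; an individual active-marked siRNA can sensitise only weakly.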 A number with no mark means an inactive call. The numbers tell different reagents against one gene apart.

| target gene | reagent | log2 vehicle/camptothecin viability | viability with camptothecin (% of control) | viability without drug (% of control) |
| --- | --- | --- | --- | --- |
| CDK12 | 1 | 0.122 | 46.8 | 51 |
| CDK12 | 2 | 0.54 | 60.6 | 88 |
| CDK12 | 3 | -0.22 | 73 | 62.7 |
| CDK12 | 4 | -0.0112 | 97.1 | 96.4 |
| AMPD1 | 1 | -0.685 | 90.9 | 56.5 |
| AMPD1 | 2 | 0.169 | 93.2 | 105 |
| AMPD1 | 3 | -0.648 | 20.5 | 13.1 |
| AMPD1 | 4 | -0.246 | 52 | 43.9 |
| GABRR2 | 1 | -0.15 | 120 | 108 |
| GABRR2 | 2 | -0.186 | 103 | 90.6 |
| GABRR2 | 3 | 0.567 | 26 | 38.6 |
| GABRR2 | 4 | -0.13 | 87.9 | 80.4 |
| P2RX2 | 1 | -0.632 | 148 | 95.4 |
| P2RX2 | 2 | -0.241 | 52.3 | 44.2 |
| P2RX2 | 3 | -0.197 | 42.1 | 36.7 |
| P2RX2 | 4 | -0.0672 | 67.8 | 64.7 |
| EFNA5 | 1 | -0.18 | 43 | 38 |
| EFNA5 | 2 | -0.391 | 84.8 | 64.7 |
| EFNA5 | 3 | 0.0161 | 90.4 | 91.4 |
| EFNA5 | 4 | 0.21 | 82.2 | 95 |
| IGF1R | 1 | 0.0852 | 65.8 | 69.8 |
| IGF1R | 2 | 0.193 | 43.8 | 50.1 |
| IGF1R | 3 | -0.175 | 89.9 | 79.6 |
| UPF1 | 1 | 0.575 (active) | 46 | 68.5 |
| UPF1 | 2 | 0.16 (active) | 55.4 | 61.9 |
| UPF1 | 3 | 0.558 (active) | 48.4 | 71.2 |
| UPF1 | 4 | 1.09 (active) | 27 | 57.6 |
| SLC7A11 | 1 | 0.0874 | 47.5 | 50.5 |
| SLC7A11 | 2 | 0.262 | 85.1 | 102 |
| SLC7A11 | 3 | -0.119 | 105 | 96.6 |
| ZNF71 | 1 | 0.236 | 66 | 77.7 |
| ZNF71 | 2 | 0.38 | 62.5 | 81.4 |
| ZNF71 | 3 | -0.554 | 133 | 90.5 |
| NPY1R | 1 | -0.19 | 104 | 91.2 |
| NPY1R | 2 | 0.538 | 55.6 | 80.7 |
| NPY1R | 3 | 0.0508 | 70.2 | 72.7 |
| NPY1R | 4 | -0.532 | 102 | 70.8 |
| MAPT | 1 | -0.133 | 49.6 | 45.3 |
| MAPT | 2 | -0.289 | 50.1 | 41 |
| MAPT | 3 | -0.339 | 49.6 | 39.2 |
| MAPT | 4 | -0.214 | 97 | 83.6 |
| INPP5A | 1 | -0.293 | 108 | 88.1 |
| INPP5A | 2 | -0.143 | 86 | 77.9 |
| INPP5A | 3 | -0.0788 | 37.6 | 35.6 |
| INPP5A | 4 | -0.314 | 43.4 | 34.9 |

Next part; the last 6 above are carried over.
| target gene | reagent | log2 vehicle/camptothecin viability | viability with camptothecin (% of control) | viability without drug (% of control) |
| --- | --- | --- | --- | --- |
| MAPT | 3 | -0.339 | 49.6 | 39.2 |
| MAPT | 4 | -0.214 | 97 | 83.6 |
| INPP5A | 1 | -0.293 | 108 | 88.1 |
| INPP5A | 2 | -0.143 | 86 | 77.9 |
| INPP5A | 3 | -0.0788 | 37.6 | 35.6 |
| INPP5A | 4 | -0.314 | 43.4 | 34.9 |
| LDLRAD4 | 1 | -0.379 | 95.1 | 73.2 |
| LDLRAD4 | 2 | 0.517 | 46 | 65.8 |
| LDLRAD4 | 3 | -0.485 | 131 | 93.5 |
| LDLRAD4 | 4 | -0.114 | 111 | 103 |
| XRCC3 | 1 | 0.98 | 42.7 | 84.3 |
| XRCC3 | 2 | 0.105 | 97.4 | 105 |
| XRCC3 | 3 | -0.0355 | 48.4 | 47.2 |
| XRCC3 | 4 | 0.116 | 35.9 | 38.9 |
| PRSS55 | 1 | -0.0576 | 93.3 | 89.7 |
| PRSS55 | 2 | 0.0385 | 28.8 | 29.6 |
| PRSS55 | 3 | -0.153 | 64.6 | 58.1 |
| PRSS55 | 4 | -0.349 | 75.9 | 59.6 |
| NCOR1P1 | 1 | -0.0682 | 106 | 101 |
| NCOR1P1 | 2 | -0.154 | 92.1 | 82.7 |
| NCOR1P1 | 3 | -0.179 | 111 | 98.2 |
| NCOR1P1 | 4 | -0.144 | 131 | 119 |
| ASB13 | 1 | -0.378 | 144 | 111 |
| ASB13 | 2 | -0.124 | 101 | 92.5 |
| ASB13 | 3 | -0.963 | 73.9 | 37.9 |
| ASB13 | 4 | 0.0907 | 87.6 | 93.3 |
| FMOD | 1 | -0.144 | 55.2 | 49.9 |
| FMOD | 2 | -0.591 | 5.54 | 3.68 |
| FMOD | 3 | -0.0503 | 80.3 | 77.5 |
